The supplement of paper PMC12542422
Structures can show the parent of a compound that is named as a salt. ± gives the standard deviation of the averaged measurements. Some of the results follow. Values are raw readings; no control value is given beside them.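 Across three biological replicates, HeLa cells were imaged for ribosome assembly using ENP1 staining (export block present or absent) or inducible tagged ribosomal protein reporters. Machine learning classified each cell's signal localization relative to DMSO controls. Hits exceeded the DMSO false-positive mean by five standard deviations and were then visually confirmed.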

Columns and labels:
[1] = test system: HeLa K (ENP1 immunofluorescence, +LMB); experiment: fraction of cells with nucleolar or nucleolar/nucleoplasmic ENP1 signal (MainHitrate); higher = more cells with nucleolar/nuclear readout signal (for ENP1 -LMB: less RNAPI inhibition; for +LMB ENP1 and RP reporters: stronger nuclear/nucleolar retention, i.e. ribosome biogenesis defect); conditions: concentration: 1 µM; treatment time: 6 h; ENP1 +LMB; leptomycin B: 20 nM, last 1.5 h
[2] = test system: HeLa K (ENP1 immunofluorescence, no LMB); experiment: as above; conditions: concentration: 1 µM; treatment time: 6 h; ENP1 -LMB; leptomycin B: none
HeLa RPS2-YFP reporter = experiment: fraction of reporter-positive cells with nuclear (nucleolar or nucleolar/nucleoplasmic) RPS2-YFP (MainHitrate); higher = more cells with nucleolar/nuclear readout signal (for ENP1 -LMB: less RNAPI inhibition; for +LMB ENP1 and RP reporters: stronger nuclear/nucleolar retention, i.e. ribosome biogenesis defect); conditions: concentration: 1 µM; treatment time: 6 h
HeLa RPL29-GFP reporter = experiment: fraction of reporter-positive cells with nuclear (nucleolar or nucleolar/nucleoplasmic) RPL29-GFP (MainHitrate); higher = more cells with nucleolar/nuclear readout signal (for ENP1 -LMB: less RNAPI inhibition; for +LMB ENP1 and RP reporters: stronger nuclear/nucleolar retention, i.e. ribosome biogenesis defect); conditions: concentration: 1 µM; treatment time: 6 h

| SMILES | fraction [1] | fraction [2] | fraction of reporter-positive cells with nuclear (HeLa RPS2-YFP reporter) | fraction of reporter-positive cells with nuclear (HeLa RPL29-GFP reporter) |
| --- | --- | --- | --- | --- |
| CCCCCCOC(=O)NC(=N)c1ccc(NCc2nc3cc(C(=O)N(CCC(=O)OCC)c4ccccn4)ccc3n2C)cc1 [BIBR-1048 (Dabigatran)] | 0.106 ± 0.15 | 0.993 ± 0.012 | 0.126 ± 0.059 | 0.222 ± 0.089 |
| OCC(O)CN1CCN(c2ccccc2)CC1 (stereo not drawn) [Dropropizine] | 0.0744 ± 0.1 | 0.989 ± 0.019 | 0.112 ± 0.077 | 0.232 ± 0.079 |
| CNCCC(Oc1ccc(C(F)(F)F)cc1)c1ccccc1 (stereo not drawn) [Fluoxetine  HCl] | 0.0832 ± 0.071 | 0.9966 ± 0.0059 | 0.114 ± 0.092 | 0.204 ± 0.05 |
| CN1C(C(=O)Nc2ccccn2)=C(O)c2sccc2S1(=O)=O [Tenoxicam (Mobiflex)] | 0.105 ± 0.14 | 0.9965 ± 0.006 | 0.118 ± 0.099 | 0.216 ± 0.082 |
| Nc1nc(F)nc2c1ncn2[C@@H]1O[C@H](CO)[C@@H](O)[C@@H]1O [Fludarabine (Fludara)] | 0.0708 ± 0.042 | 0.9982 ± 0.003 | 0.106 ± 0.089 | 0.199 ± 0.035 |
| CCn1cc(C(=O)O)c(=O)c2cc(F)c(N3CCNC(C)C3)c(F)c21 (stereo not drawn) [Lomefloxacin hydrochloride (Maxaquin)] | 0.111 ± 0.15 | 0.992 ± 0.014 | 0.129 ± 0.065 | 0.224 ± 0.063 |
| CN[C@H]1CC[C@@H](c2ccc(Cl)c(Cl)c2)c2ccccc21 [Sertraline HCl] | 0.0914 ± 0.13 | 0.986 ± 0.024 | 0.11 ± 0.1 | 0.225 ± 0.062 |
| O=NO [Sodium nitrite] | 0.14 ± 0.21 | 0.987 ± 0.023 | 0.124 ± 0.12 | 0.202 ± 0.063 |
| CC[C@H](C)C(=O)O[C@H]1CCC=C2C=C[C@H](C)[C@H](CC[C@@H]3C[C@@H](O)CC(=O)O3)[C@H]21 [Mevastatin] | 0.0505 ± 0.059 | 0.994 ± 0.011 | 0.138 ± 0.11 | 0.22 ± 0.066 |
| Cn1cnc([N+](=O)[O-])c1Sc1ncnc2[nH]cnc12 [Azathioprine (Azasan, Imuran)] | 0.0554 ± 0.027 | 0.9985 ± 0.0026 | 0.103 ± 0.067 | 0.21 ± 0.065 |
| CN(C)CC/C=C1/c2ccccc2COc2ccc(CC(=O)O)cc21 [Olopatadine hydrochloride (Opatanol)] | 0.0896 ± 0.12 | 0.994 ± 0.011 | 0.093 ± 0.068 | 0.239 ± 0.072 |
| OCC(CO)N[C@H]1C[C@](O)(CO)[C@@H](O)[C@H](O)[C@H]1O [Voglibose] | 0.121 ± 0.17 | 0.969 ± 0.054 | 0.122 ± 0.1 | 0.195 ± 0.078 |
| N[C@@H](C(=O)N[C@@H]1C(=O)N2C(C(=O)O)=C(Cl)CS[C@H]12)c1ccccc1 [Cefaclor (Ceclor)] | 0.0489 ± 0.032 | 0.9987 ± 0.0023 | 0.0826 ± 0.051 | 0.201 ± 0.043 |
| C=C[C@]1(C)C[C@@H](OC(=O)CSC(C)(C)CNC(=O)[C@H](N)C(C)C)[C@]2(C)[C@H](C)CC[C@]3(CCC(=O)[C@H]32)[C@@H](C)[C@@H]1O [Valnemulin HCl] | 0.0647 ± 0.088 | 0.986 ± 0.024 | 0.124 ± 0.085 | 0.194 ± 0.046 |
| CC(C)(S)[C@@H](N)C(=O)O [Penicillamine (Cuprimine)] | 0.142 ± 0.19 | 0.9963 ± 0.0064 | 0.134 ± 0.09 | 0.233 ± 0.074 |
| COc1cc(NS(=O)(=O)c2ccc(N)cc2)nc(OC)n1 [Sulphadimethoxine] | 0.0507 ± 0.068 | 0.9948 ± 0.009 | 0.0704 ± 0.03 | 0.219 ± 0.033 |
| C[C@]12C=CC(=O)C=C1CC[C@@H]1[C@@H]2[C@@H](O)C[C@@]2(C)[C@H]1CC[C@]2(O)C(=O)CO [Prednisolone (Hydroretrocortine)] | 0.162 ± 0.14 | 0.9989 ± 0.002 | 0.136 ± 0.11 | 0.233 ± 0.062 |
| OC[C@@H](O)[C@@H](O)[C@H](O)[C@@H](O)CO [Sorbitol (Glucitol)] | 0.133 ± 0.2 | 0.986 ± 0.024 | 0.131 ± 0.11 | 0.227 ± 0.085 |
| O=C(O)c1cc(/N=N/c2ccc(O)c(C(=O)O)c2)ccc1O [olsalazine sodium] | 0.09 ± 0.11 | 0.982 ± 0.032 | 0.0826 ± 0.035 | 0.176 ± 0.023 |
| CCN1CCN(c2cc(-c3ccc(F)cc3)c3c(n2)CCCCCC3)CC1 [Blonanserin (Lonasen)] | 0.098 ± 0.13 | 0.991 ± 0.016 | 0.101 ± 0.091 | 0.211 ± 0.069 |
| Cc1cnc(C(=O)O)c[n+]1[O-] [Acipimox] | 0.0588 ± 0.074 | 0.9966 ± 0.0059 | 0.0729 ± 0.049 | 0.265 ± 0.092 |
| C#Cc1cccc(Nc2ncnc3cc(OCCOC)c(OCCO)cc23)c1 [OSI-420 (Desmethyl Erlotinib)] | 0.146 ± 0.21 | 0.992 ± 0.014 | 0.119 ± 0.084 | 0.25 ± 0.068 |
| CC1(C)Cc2c(-c3ccccc3)c(-c3ccc(Cl)cc3)c(CC(=O)O)n2C1 [Licofelone] | 0.133 ± 0.2 | 0.992 ± 0.013 | 0.127 ± 0.089 | 0.237 ± 0.09 |
| CC(C)(Oc1ccc(Cl)cc1)C(=O)O [Clofibric acid] | 0.128 ± 0.19 | 0.992 ± 0.014 | 0.132 ± 0.1 | 0.234 ± 0.052 |
| COc1ccc(Cl)cc1C(=O)NCCc1ccc(S(=O)(=O)NC(=O)NC2CCCCC2)cc1 [Glyburide (Diabeta)] | 0.109 ± 0.12 | 0.9986 ± 0.0025 | 0.114 ± 0.082 | 0.223 ± 0.084 |
| CCOc1ccc(NC(C)=O)cc1 [Phenacetin] | 0.0661 ± 0.078 | 0.9977 ± 0.004 | 0.127 ± 0.11 | 0.206 ± 0.086 |
| O=C1CCC(N2C(=O)c3ccccc3C2=O)C(=O)N1 (stereo not drawn) [Thalidomide] | 0.0654 ± 0.037 | 0.9971 ± 0.005 | 0.106 ± 0.072 | 0.216 ± 0.056 |

Whole records from above.
C=C[C@]1(C)C[C@@H](OC(=O)CSC(C)(C)CNC(=O)[C@H](N)C(C)C)[C@]2(C)[C@H](C)CC[C@]3(CCC(=O)[C@H]32)[C@@H](C)[C@@H]1O [Valnemulin HCl] in the list: fraction [1]: 0.0647 ± 0.088; fraction [2]: 0.986 ± 0.024; fraction of reporter-positive cells with nuclear (HeLa RPS2-YFP reporter): 0.124 ± 0.085; fraction of reporter-positive cells with nuclear (HeLa RPL29-GFP reporter): 0.194 ± 0.046
COc1ccc(Cl)cc1C(=O)NCCc1ccc(S(=O)(=O)NC(=O)NC2CCCCC2)cc1 [Glyburide (Diabeta)] in the list: fraction [1]: 0.109 ± 0.12; fraction [2]: 0.9986 ± 0.0025; fraction of reporter-positive cells with nuclear (HeLa RPS2-YFP reporter): 0.114 ± 0.082; fraction of reporter-positive cells with nuclear (HeLa RPL29-GFP reporter): 0.223 ± 0.084
